# Data from the supplement of paper PMC10849652.
# Amino acid sequences for entries named in this document (tags omitted). A change or cut given only in a name is not applied to a line headed by its entry.
# UniProt P33121: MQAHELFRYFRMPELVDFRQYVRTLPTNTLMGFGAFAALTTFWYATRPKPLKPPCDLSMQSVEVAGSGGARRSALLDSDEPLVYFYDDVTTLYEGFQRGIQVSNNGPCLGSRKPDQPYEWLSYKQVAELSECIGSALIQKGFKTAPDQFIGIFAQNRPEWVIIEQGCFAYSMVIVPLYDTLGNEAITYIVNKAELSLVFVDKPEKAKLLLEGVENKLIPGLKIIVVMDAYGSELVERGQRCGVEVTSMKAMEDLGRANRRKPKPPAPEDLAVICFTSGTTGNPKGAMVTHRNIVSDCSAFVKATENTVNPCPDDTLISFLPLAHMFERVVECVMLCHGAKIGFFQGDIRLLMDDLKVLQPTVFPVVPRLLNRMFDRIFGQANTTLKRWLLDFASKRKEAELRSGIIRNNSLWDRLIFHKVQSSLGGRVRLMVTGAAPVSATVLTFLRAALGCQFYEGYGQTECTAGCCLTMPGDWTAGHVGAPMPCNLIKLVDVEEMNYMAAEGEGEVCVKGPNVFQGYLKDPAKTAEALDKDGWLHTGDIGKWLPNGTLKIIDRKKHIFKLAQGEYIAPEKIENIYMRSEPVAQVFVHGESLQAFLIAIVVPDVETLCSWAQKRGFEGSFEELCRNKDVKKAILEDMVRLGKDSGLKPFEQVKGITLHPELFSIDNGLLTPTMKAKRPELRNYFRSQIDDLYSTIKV
# UniProt Q7Z591: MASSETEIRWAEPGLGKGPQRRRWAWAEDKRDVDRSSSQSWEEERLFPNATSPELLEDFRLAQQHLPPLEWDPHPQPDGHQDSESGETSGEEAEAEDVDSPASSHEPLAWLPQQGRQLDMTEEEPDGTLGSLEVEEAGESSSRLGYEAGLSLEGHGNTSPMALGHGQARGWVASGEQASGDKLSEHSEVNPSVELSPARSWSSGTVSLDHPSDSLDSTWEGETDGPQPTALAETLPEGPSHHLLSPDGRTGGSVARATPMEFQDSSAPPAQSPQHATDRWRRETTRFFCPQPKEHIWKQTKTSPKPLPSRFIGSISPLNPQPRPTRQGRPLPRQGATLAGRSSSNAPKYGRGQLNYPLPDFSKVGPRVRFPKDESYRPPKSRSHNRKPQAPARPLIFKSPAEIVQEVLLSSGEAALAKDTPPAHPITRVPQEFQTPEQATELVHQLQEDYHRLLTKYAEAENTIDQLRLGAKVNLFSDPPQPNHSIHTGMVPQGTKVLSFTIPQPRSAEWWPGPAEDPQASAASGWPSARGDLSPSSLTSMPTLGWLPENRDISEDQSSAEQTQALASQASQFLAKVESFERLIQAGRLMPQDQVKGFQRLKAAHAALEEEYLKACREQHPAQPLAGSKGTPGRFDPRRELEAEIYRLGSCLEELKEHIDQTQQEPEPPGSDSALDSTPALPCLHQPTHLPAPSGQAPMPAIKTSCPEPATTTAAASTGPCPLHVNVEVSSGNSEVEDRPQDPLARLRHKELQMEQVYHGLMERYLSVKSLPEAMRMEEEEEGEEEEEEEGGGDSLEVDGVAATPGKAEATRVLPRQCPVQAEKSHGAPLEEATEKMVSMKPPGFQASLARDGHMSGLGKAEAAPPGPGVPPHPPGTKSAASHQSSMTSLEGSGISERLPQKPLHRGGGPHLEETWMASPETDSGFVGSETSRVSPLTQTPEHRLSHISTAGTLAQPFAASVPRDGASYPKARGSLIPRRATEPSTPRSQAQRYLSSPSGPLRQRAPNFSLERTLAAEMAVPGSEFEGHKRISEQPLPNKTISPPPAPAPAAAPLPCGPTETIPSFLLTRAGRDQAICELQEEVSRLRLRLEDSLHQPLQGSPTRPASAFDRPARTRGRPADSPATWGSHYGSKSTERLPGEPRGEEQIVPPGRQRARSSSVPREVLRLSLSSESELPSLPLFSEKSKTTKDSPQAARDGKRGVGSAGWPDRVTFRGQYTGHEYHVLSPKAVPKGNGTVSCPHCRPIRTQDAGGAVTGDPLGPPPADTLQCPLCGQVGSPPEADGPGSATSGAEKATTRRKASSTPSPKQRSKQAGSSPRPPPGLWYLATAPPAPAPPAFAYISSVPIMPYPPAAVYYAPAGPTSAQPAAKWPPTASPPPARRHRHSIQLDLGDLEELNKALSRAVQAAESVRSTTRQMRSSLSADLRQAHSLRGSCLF
# UniProt P54922: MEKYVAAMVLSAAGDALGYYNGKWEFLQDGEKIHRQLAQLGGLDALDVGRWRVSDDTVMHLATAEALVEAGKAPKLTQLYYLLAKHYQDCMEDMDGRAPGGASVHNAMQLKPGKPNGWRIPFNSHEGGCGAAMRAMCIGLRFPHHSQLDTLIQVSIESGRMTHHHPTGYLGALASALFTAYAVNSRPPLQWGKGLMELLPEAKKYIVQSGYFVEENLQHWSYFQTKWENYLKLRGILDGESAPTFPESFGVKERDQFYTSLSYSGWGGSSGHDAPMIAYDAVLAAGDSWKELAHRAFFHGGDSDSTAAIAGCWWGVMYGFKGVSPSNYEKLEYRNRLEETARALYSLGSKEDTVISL
# UniProt Q8N142: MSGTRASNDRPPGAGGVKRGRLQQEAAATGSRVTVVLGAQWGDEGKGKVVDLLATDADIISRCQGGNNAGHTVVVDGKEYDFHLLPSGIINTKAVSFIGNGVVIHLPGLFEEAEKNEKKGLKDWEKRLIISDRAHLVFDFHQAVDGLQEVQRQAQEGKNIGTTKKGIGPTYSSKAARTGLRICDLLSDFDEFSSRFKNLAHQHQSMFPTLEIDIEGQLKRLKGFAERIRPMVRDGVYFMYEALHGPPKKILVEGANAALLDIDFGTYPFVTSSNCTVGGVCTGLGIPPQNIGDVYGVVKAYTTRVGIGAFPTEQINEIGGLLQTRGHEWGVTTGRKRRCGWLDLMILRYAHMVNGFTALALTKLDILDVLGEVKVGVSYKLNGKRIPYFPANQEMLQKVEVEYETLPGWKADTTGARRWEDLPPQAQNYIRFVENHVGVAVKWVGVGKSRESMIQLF
# UniProt Q13443: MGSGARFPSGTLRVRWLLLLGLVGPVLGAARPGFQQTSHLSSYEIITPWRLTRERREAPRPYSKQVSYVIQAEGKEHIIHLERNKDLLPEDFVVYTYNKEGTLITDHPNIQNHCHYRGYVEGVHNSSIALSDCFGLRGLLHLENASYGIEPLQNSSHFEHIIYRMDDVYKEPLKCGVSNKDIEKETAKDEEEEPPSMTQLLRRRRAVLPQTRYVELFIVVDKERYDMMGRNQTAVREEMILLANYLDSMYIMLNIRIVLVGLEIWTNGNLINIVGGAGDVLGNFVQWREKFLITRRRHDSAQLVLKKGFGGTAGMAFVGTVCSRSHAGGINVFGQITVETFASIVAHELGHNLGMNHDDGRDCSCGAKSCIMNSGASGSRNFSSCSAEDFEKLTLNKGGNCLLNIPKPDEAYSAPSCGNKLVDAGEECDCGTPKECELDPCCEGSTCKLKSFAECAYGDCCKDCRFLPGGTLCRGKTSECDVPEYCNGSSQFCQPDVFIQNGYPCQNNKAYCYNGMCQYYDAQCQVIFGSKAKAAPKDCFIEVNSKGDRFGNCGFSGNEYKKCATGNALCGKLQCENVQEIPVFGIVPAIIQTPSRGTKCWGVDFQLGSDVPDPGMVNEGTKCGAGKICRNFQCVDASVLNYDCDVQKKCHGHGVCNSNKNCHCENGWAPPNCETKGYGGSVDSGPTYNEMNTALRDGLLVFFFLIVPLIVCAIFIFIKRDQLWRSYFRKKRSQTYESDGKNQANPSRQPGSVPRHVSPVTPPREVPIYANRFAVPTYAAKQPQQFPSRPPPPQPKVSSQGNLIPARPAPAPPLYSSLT
# UniProt P35612: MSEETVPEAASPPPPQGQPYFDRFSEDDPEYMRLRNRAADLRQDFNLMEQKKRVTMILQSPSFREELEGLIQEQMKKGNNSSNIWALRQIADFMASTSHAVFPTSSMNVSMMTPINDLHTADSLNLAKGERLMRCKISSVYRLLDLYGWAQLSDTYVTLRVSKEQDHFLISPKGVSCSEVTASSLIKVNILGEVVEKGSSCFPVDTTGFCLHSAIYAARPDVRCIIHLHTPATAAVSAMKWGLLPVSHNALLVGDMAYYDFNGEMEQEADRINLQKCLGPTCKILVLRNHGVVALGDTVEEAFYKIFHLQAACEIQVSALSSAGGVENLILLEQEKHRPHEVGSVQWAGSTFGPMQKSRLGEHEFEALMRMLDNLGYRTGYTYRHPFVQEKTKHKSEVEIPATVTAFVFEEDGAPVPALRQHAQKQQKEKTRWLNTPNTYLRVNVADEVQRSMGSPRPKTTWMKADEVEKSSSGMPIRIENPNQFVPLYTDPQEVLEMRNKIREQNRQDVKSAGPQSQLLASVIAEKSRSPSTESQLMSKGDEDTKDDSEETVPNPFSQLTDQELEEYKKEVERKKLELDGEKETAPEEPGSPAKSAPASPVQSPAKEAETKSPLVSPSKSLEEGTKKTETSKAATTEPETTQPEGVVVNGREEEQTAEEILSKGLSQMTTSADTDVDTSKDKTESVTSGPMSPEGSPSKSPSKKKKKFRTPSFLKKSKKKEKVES
# UniProt P78536: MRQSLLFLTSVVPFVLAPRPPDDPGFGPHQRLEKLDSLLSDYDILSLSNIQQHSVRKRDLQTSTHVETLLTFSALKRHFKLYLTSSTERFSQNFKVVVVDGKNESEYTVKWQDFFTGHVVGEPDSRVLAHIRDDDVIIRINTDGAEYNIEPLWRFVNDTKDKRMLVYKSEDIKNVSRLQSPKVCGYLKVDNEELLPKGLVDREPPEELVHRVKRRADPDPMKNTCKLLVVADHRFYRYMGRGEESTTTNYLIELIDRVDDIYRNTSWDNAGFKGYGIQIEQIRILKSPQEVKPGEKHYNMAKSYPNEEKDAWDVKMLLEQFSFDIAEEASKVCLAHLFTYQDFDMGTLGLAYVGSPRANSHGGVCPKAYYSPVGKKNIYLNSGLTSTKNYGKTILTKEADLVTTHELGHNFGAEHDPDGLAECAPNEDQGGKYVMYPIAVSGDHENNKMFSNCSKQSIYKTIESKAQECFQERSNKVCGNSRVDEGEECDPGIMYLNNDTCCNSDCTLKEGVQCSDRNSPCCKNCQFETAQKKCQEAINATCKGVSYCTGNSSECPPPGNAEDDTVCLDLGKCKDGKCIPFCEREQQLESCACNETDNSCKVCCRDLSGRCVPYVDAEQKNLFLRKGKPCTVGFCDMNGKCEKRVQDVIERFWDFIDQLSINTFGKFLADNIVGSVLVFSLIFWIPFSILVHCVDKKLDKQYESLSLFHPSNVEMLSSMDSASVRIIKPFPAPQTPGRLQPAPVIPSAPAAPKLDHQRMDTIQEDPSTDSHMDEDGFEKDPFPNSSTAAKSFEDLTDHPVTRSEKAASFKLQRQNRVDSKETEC
# UniProt P14621: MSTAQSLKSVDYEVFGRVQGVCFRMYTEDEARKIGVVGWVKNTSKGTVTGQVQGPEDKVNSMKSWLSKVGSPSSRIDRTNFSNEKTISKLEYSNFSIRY
# UniProt Q9Y3D8, whole entry, looked up: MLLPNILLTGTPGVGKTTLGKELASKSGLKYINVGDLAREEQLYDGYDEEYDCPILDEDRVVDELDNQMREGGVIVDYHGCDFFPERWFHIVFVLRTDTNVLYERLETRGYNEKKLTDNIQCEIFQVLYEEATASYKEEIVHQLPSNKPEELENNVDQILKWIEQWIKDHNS
# UniProt Q6ULP2: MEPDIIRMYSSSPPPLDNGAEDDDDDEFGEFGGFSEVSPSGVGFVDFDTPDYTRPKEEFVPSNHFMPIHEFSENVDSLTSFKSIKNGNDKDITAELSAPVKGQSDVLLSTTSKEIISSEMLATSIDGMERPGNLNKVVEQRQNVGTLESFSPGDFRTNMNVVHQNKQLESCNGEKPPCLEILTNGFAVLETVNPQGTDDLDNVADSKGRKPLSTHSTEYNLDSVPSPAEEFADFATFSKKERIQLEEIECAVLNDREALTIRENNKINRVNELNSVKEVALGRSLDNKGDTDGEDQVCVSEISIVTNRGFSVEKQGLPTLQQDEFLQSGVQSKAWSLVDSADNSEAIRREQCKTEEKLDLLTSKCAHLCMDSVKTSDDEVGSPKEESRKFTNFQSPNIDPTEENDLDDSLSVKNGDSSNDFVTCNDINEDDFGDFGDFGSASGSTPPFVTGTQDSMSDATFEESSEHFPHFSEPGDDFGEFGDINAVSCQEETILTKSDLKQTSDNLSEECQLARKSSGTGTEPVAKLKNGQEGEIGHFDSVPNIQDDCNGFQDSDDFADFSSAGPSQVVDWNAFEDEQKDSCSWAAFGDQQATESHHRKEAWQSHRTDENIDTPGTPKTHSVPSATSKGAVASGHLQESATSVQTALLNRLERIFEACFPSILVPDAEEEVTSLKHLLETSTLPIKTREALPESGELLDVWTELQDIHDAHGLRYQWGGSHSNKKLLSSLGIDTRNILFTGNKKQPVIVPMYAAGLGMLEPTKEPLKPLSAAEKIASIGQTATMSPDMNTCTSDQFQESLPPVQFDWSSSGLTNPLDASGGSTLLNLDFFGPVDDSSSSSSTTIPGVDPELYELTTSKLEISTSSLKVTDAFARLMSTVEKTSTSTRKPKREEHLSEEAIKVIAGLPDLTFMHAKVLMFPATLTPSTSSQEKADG
# This is one part of the list.
# Assays:
# Assay in all cases: log2 fold change, soluble protein after heating vs DMSO (PISA); higher = thermal stabilisation; K562 lysate, 10 uM; active = over 0.2 and 3.5 SD of the protein, either way, in both replicates (recomputed)
# [1] = compound: C1=CC=C(C=C1)[C@H](COC2=CC3=C(C=C2)NC(=O)N3)NC(=O)C4=CC=CN(C4=O)CC5=CC(=C(C=C5)F)F
# Method in brief: (§1)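 Log-two fold change in thermal stability relative to solvent controls is reported from duplicates. For each sample, crude K562 extract from dounce-homogenised pellets in PBS pH 7.4 with 1 mM MgCl2, at 1 mg/mL protein, was treated with 10 μM compound for 30 min. Aliquots heated for 3 min across 48°C-58°C were pooled, brought to 0.5% NP-40 at 4°C and cleared at 21,000xg for 90 min. The supernatant was quantified by TMTpro 16plex LC-MS/MS with channel sums equalised.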
# [2] = compound: CC1=C(SC2=C1C(=N[C@H](C3=NN=C(N32)C)CC(=O)N)C4=CC=C(C=C4)Cl)C
# Method in brief: as §1
# [3] = compound: CC1=C2C(=CC=C1)N=C(N(C2=O)C3=CC=CC=C3C)CN4C=NC5=C(N=CN=C54)N
# Method in brief: as §1
# [4] = compound: Cc1sc2c(c1C)C(c1ccc(Cl)cc1)=N[C@@H](CC(=O)OC(C)(C)C)c1nnc(C)n1-2
# Method in brief: as §1
# [5] = compound: c1ccc([C@@H]2C[C@H]2NC2CCNCC2)cc1
# Method in brief: as §1
Target,log2 fold change [1],log2 fold change [2],log2 fold change [3],log2 fold change [4],log2 fold change [5]
ADNP (UniProt Q9H2P0),inactive: 0.049,inactive: -0.001,inactive: -0.008,inactive: 0.02,inactive: -0.051
ADSL (UniProt P30566),inactive: 0.039,inactive: -0.006,inactive: 0.017,inactive: 0.003,inactive: 0.06
ACSL1 (UniProt P33121),inactive: -0.136,inactive: 0.004,inactive: 0.014,inactive: 0.063,inactive: 0.021
ACP2 (UniProt P11117),inactive: -0.017,inactive: 0.034,inactive: 0.009,inactive: 0.021,inactive: -0.023
ACSF3 (UniProt Q4G176),inactive: 0.119,inactive: 0.012,inactive: -0.024,inactive: -0.004,inactive: 0.013
ACTR6 (UniProt Q9GZN1),inactive: 0.031,inactive: -0.047,inactive: 0.022,inactive: 0.054,inactive: -0.101
ACP1 (UniProt P24666),inactive: -0.032,inactive: 0.083,inactive: 0.039,inactive: 0.082,inactive: 0.021
ADD1 isoform 4 (UniProt P35611),inactive: 0.22,inactive: 0.088,inactive: 0.12,inactive: -0.099,inactive: -0.571
AGTRAP (UniProt Q6RW13),inactive: -0.157,inactive: -0.109,inactive: -0.023,inactive: -0.168,inactive: -0.094
AKAP12 (UniProt Q02952),inactive: 0.203,inactive: -0.26,inactive: 0.004,inactive: -0.138,inactive: -0.204
AKNA (UniProt Q7Z591),inactive: -0.057,inactive: 0.256,inactive: 0.042,inactive: 0.056,inactive: -0.011
ACTB (UniProt C9JTX5),inactive: -0.222,inactive: 0.044,inactive: 0.115,inactive: 0.055,inactive: 0.433
ADI1 (UniProt Q9BV57),inactive: -0.008,inactive: 0.064,inactive: 0.028,inactive: -0.047,inactive: -0.034
ADIPOR1 (UniProt Q96A54),inactive: -0.046,inactive: -0.01,inactive: -0.033,inactive: -0.056,inactive: 0.005
AIDA (UniProt Q96BJ3),inactive: 0.001,inactive: 0.003,inactive: -0.026,inactive: -0.133,inactive: -0.13
AK3 (UniProt Q9UIJ7),inactive: 0.017,inactive: -0.021,inactive: -0.001,inactive: 0.012,inactive: 0.016
ACTR2 (UniProt P61160),inactive: 0.021,inactive: 0.004,inactive: 0.005,inactive: 0,inactive: -0.007
AIP (UniProt O00170),inactive: 0.012,inactive: -0.023,inactive: -0.006,inactive: 0.025,inactive: 0.125
ADPRH (UniProt P54922),inactive: -0.045,inactive: -0.098,inactive: -0.016,inactive: -0.035,inactive: 0.021
AKAP11 (UniProt Q9UKA4),inactive: 0.025,inactive: -0.008,inactive: 0.059,inactive: -0.041,inactive: -0.012
AGL (UniProt P35573),inactive: 0.022,inactive: 0.028,inactive: 0.036,inactive: 0.035,inactive: 0.086
ADSS1 (UniProt Q8N142),inactive: 0.047,inactive: -0.03,inactive: 0.012,inactive: 0.021,inactive: 0.008
AGK (UniProt Q53H12),inactive: -0.029,inactive: 0.032,inactive: -0.017,inactive: 0.032,inactive: 0.023
AFP (UniProt P02771),inactive: 0.022,inactive: -0.046,inactive: 0.014,inactive: -0.008,inactive: 0.033
AGO4 (UniProt Q9HCK5),inactive: 0.014,inactive: 0.022,inactive: 0.001,inactive: -0.011,inactive: -0.07
ADAM9 (UniProt Q13443),inactive: -0.017,inactive: -0.023,inactive: 0.031,inactive: 0.051,inactive: -0.004
ACTL6A (UniProt O96019),inactive: 0.005,inactive: 0.011,inactive: 0.037,inactive: 0.006,inactive: 0.021

Target,log2 fold change [1],log2 fold change [2],log2 fold change [3],log2 fold change [4],log2 fold change [5]
AGTPBP1 (UniProt Q9UPW5),inactive: 0.131,inactive: -0.13,inactive: 0.051,inactive: -0.042,inactive: 0.03
ADD2 (UniProt P35612),inactive: 0.007,inactive: 0.018,inactive: 0,inactive: -0.017,inactive: -0.034
ADGRE2 (UniProt Q9UHX3),inactive: -0.072,inactive: -0.117,inactive: -0.053,inactive: -0.056,inactive: 0.087
ADO (UniProt Q96SZ5),inactive: 0.032,inactive: 0.028,inactive: 0.024,inactive: 0.003,inactive: -0.021
AKAP9 (UniProt Q99996),inactive: -0.032,inactive: -0.013,inactive: 0.063,inactive: -0.033,inactive: 0.036
ACTL8 (UniProt Q9H568),inactive: 0.072,inactive: 0.029,inactive: -0.041,inactive: -0.042,inactive: 0.013
AKAP8 (UniProt O43823),inactive: -0.02,inactive: 0.073,inactive: -0.016,inactive: -0.009,inactive: -0.014
AGFG1 isoform 4 (UniProt P52594),inactive: 0.066,inactive: -0.029,inactive: -0.033,inactive: 0.049,inactive: -0.02
ACTR5 (UniProt Q9H9F9),inactive: 0.035,inactive: -0.038,inactive: -0.104,inactive: 0.003,inactive: 0.125
ADPRHL2 (UniProt Q9NX46),inactive: 0.008,inactive: -0.011,inactive: 0.018,inactive: -0.014,inactive: 0.069
ADD1 isoform 3 (UniProt P35611),inactive: 0.03,inactive: 0.016,inactive: -0.01,inactive: -0.021,inactive: 0.015
ACTR1B (UniProt P42025),inactive: -0.009,inactive: 0.071,inactive: 0.015,inactive: -0.03,inactive: 0.048
ACYP1 (UniProt P07311),inactive: 0.019,inactive: -0.026,inactive: -0.036,inactive: 0.022,inactive: 0.052
ADD3 (UniProt Q9UEY8),inactive: 0.056,inactive: -0.011,inactive: 0.007,inactive: -0.011,inactive: 0.018
ACTA1 (UniProt P68133),inactive: -0.009,inactive: 0.006,inactive: 0.019,inactive: -0.02,inactive: -0.013
ADAM17 (UniProt P78536),inactive: -0.098,active: -0.251,inactive: 0.093,inactive: 0.002,inactive: -0.032
ACOT8 (UniProt O14734),inactive: 0.019,inactive: 0.005,inactive: 0.014,inactive: 0.156,inactive: -0.014
AFF4 (UniProt Q9UHB7),active: -0.362,inactive: -0.269,inactive: -0.081,inactive: -0.026,inactive: -0.052
ADAMTSL4 isoform 3 (UniProt Q6UY14),inactive: -0.073,inactive: -0.103,,inactive: -0.021,inactive: 0.066
AFDN isoform 1 (UniProt P55196),inactive: -0.013,inactive: 0.019,inactive: -0.008,inactive: -0.001,inactive: 0.044
ACYP2 (UniProt P14621),inactive: -0.061,inactive: -0.032,inactive: 0.011,,inactive: 0.118
"ACTB, A0A2R8YGF8",inactive: 0.046,inactive: 0.023,inactive: 0.098,,inactive: 0.188
AIMP2 (UniProt Q13155),inactive: -0.028,inactive: 0.021,inactive: 0.013,inactive: 0.036,inactive: 0.041
AKR1B1 (UniProt P15121),inactive: 0.015,inactive: 0.066,inactive: 0.059,inactive: -0.146,inactive: -0.049
AK6 (UniProt Q9Y3D8),inactive: -0.003,inactive: 0.028,inactive: 0.008,inactive: -0.024,inactive: 0.09
AFTPH isoform 9 (UniProt Q6ULP2),inactive: -0.024,inactive: 0.009,inactive: -0.061,inactive: 0.005,inactive: -0.027
AGPAT1 (UniProt Q99943),inactive: -0.04,inactive: 0.024,inactive: 0.089,inactive: -0.038,inactive: -0.134

# A portion of the results above, for reference:
Target,log2 fold change [1],log2 fold change [2],log2 fold change [3],log2 fold change [4],log2 fold change [5]
AFDN isoform 1 (UniProt P55196),inactive: -0.013,inactive: 0.019,inactive: -0.008,inactive: -0.001,inactive: 0.044
ACYP2 (UniProt P14621),inactive: -0.061,inactive: -0.032,inactive: 0.011,,inactive: 0.118
"ACTB, A0A2R8YGF8",inactive: 0.046,inactive: 0.023,inactive: 0.098,,inactive: 0.188
